Source: PMC5421568
Where a chain is given by its changes, count along the chain named. No constants are given. Whether binding was seen depends on the method and setting. Some binding calls cover weakened binding; strength is not graded here. Tags and fused reporters may be left off the sequences shown.

Amino acid sequences for entries named in this document (tags omitted).
UniProt P15873: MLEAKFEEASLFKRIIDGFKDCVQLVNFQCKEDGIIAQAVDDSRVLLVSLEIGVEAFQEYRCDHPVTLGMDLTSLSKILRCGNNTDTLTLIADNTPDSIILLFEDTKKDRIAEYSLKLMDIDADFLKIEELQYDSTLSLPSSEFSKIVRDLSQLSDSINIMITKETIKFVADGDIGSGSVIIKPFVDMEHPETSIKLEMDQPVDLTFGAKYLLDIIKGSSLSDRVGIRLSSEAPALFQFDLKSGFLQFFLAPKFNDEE

Tests used:
Assay in all cases: two-hybrid; yeast two-hybrid; Mcm10-LexA fusion proteins co-expressed with PCNA; beta-galactosidase activity measured in cell extracts, in triplicate from three individual transformants
[1] = target: T1, Mcm10-K372R-LexA fusion protein (S. cerevisiae) (UniProt P32354)
T1 sequence: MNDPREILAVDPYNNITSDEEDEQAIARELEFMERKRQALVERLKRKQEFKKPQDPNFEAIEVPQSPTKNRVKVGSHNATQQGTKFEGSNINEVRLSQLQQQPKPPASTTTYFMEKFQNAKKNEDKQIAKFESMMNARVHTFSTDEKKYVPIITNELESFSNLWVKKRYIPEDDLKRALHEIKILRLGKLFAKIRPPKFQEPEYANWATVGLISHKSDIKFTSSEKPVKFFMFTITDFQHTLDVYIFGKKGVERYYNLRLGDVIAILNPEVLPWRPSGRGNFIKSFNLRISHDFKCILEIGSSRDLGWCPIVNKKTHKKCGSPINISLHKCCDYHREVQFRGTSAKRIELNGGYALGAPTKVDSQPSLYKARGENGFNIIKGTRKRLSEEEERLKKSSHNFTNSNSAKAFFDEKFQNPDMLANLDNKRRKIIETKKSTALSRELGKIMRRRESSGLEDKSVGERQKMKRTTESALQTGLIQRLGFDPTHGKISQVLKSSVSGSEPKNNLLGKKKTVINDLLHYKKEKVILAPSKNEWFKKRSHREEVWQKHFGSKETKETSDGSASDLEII

[2] = target: T2, Mcm10-K85R-LexA fusion protein (S. cerevisiae) (UniProt P32354)
T2 sequence: T1 sequence with K85R, R372K

[3] = target: T3, Mcm10-KK85,372RR-LexA fusion protein (S. cerevisiae) (UniProt P32354)
T3 sequence: T1 sequence with K85R

[4] = target: T4, Mcm10-LexA fusion protein (wild-type Mcm10) (S. cerevisiae) (UniProt P32354)
T4 sequence: T1 sequence with R372K

binding [1]: binds | binding [2]: binds | binding [3]: binds | binding [4]: binds
Substance: proliferating cell nuclear antigen (PCNA) (from UniProt P15873 1-258)
